The target of assay [1] is ephrinA2 receptor (EphA2), endogenous (human (endogenous in HK1 and 5-8F)) (UniProt P29317). Put plainly: co-IP; endogenous proteins; whole cell lysates of HK1 and 5-8F NPC cells, Protein A/G-Sepharose 4B, overnight at 4°C, 5 washes with RIPA buffer, immunoblotting. In general terms: Immunoblotting shows a protein as a band on a membrane.
The target of assay [2] is kinase domain deletion (D606-906) EphA2 (UniProt P29317). Put plainly: co-IP; HEK293 cells co-transfected with USP5 and EphA2 expression plasmids (wild type or deletion mutants); whole cell lysates, Protein A/G-Sepharose 4B, overnight at 4°C, 5 washes with RIPA buffer, immunoblotting.
Assay [3] concerns the target GST tagged EphA2 protein (UniProt P29317). The assay is described as follows: pull-down; purified His tagged USP5 mixed with purified GST or GST tagged EphA2 immobilized on glutathione beads; immunoblot with antibodies against GST or Histidine; both purified.

Protein sequences, listed by entry. Tags and fused reporters are not part of them. Lines headed by an entry give the natural chain unless they say otherwise; changes in a name come on top. Chains listed by the source or under a name are the forms on record and can include a tag or linker. Residues count along the entry.
GST tagged EphA2 protein (P29317, residues 24-976): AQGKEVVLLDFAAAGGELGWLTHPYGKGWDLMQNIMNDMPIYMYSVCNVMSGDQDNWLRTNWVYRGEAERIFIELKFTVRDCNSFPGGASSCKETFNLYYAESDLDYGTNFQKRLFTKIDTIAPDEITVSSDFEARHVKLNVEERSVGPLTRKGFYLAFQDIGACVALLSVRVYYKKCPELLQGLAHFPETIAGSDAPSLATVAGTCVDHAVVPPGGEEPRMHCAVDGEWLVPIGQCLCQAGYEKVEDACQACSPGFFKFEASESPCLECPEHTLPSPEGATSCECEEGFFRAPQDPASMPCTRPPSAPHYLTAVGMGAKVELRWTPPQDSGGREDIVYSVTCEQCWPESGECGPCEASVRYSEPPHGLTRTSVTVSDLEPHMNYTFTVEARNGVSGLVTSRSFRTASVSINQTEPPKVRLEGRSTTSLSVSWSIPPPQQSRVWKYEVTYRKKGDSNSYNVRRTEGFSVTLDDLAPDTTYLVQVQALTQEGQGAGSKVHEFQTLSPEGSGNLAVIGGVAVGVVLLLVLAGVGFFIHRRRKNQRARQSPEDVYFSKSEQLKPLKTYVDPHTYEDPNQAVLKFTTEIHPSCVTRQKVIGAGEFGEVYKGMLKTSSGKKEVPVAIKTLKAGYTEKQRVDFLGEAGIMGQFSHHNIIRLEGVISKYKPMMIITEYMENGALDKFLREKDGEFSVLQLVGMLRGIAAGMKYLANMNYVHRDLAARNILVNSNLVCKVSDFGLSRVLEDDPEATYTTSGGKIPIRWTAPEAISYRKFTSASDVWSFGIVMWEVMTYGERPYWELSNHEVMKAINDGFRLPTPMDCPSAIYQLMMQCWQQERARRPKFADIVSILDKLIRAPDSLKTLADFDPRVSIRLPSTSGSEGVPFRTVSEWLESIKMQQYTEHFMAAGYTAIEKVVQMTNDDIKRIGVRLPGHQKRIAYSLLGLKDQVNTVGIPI
kinase domain deletion (D606-906) EphA2 (P29317, form named): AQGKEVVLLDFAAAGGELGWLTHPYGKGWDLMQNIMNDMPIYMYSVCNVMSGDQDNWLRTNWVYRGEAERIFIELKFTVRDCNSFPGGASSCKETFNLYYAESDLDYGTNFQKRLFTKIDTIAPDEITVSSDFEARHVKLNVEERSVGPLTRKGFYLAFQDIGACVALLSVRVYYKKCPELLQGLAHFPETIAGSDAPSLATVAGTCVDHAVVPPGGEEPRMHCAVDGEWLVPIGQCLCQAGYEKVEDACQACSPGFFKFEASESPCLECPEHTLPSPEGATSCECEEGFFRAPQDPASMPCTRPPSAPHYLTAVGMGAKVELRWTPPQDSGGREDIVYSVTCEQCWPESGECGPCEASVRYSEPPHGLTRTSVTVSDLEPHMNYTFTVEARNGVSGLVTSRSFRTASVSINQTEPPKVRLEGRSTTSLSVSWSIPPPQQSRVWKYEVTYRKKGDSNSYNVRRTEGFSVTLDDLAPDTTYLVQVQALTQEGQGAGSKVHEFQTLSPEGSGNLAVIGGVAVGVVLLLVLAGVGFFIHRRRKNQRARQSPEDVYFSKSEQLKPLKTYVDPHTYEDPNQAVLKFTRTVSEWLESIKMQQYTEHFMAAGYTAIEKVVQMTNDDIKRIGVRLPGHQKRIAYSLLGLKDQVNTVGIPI
UniProt P45974: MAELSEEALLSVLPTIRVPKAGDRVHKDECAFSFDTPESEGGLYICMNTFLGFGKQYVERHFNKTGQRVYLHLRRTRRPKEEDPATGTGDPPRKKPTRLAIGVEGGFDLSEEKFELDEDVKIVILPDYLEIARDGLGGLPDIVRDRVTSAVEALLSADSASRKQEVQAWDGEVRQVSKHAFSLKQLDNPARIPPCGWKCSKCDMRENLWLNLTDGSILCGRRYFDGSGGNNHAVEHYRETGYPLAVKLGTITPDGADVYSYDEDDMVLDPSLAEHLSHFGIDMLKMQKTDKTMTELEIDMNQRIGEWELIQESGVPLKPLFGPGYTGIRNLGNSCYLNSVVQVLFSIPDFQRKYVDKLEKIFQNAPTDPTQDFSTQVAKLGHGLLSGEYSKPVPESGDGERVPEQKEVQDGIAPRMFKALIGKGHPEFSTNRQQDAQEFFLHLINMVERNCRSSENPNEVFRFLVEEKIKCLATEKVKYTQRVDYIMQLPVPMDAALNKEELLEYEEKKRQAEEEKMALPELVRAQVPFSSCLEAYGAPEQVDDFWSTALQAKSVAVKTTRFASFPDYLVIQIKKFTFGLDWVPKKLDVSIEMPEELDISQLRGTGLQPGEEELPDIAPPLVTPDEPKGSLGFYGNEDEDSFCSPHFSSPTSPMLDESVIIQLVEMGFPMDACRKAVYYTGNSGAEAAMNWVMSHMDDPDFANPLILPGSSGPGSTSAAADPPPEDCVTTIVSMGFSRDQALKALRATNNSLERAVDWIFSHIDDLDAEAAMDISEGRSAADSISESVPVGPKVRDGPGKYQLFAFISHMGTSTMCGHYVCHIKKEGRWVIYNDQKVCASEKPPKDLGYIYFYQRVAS
Flag-USP5 (wild type) (P45974-2, form named): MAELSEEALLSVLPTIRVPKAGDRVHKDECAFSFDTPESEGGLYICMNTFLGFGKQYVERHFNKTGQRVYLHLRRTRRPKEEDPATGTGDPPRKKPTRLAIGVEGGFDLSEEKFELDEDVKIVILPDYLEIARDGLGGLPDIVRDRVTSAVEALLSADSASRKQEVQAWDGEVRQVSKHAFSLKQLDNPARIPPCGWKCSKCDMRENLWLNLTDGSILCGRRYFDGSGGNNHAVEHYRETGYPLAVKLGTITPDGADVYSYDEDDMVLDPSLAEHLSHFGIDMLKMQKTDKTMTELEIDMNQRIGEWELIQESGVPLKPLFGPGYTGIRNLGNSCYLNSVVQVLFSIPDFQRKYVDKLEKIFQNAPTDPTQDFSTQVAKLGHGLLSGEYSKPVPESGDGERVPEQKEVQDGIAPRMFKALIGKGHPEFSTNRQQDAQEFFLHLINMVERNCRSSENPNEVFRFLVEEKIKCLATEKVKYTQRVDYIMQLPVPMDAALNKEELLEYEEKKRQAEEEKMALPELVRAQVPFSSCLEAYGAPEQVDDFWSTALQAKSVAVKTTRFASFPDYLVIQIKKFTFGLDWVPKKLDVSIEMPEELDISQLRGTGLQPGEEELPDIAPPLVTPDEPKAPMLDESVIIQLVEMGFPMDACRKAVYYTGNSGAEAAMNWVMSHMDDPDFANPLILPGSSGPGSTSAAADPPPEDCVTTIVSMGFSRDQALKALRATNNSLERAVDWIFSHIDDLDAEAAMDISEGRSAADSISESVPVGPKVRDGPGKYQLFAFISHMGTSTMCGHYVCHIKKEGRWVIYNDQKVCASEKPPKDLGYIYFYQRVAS

Results are given in words; binding and its absence hold for the method and conditions named. For part of these data: In cells and extracts the contact can be indirect. Some entries that bind do so weakly or less than the wild type.

“ubiquitin specific peptidase 5 (USP5), endogenous (from UniProt P45974 1-858) (enzyme)”: the binding entry in assay [1] is given as “binds”. For the substance “Flag-USP5 (wild type) (from UniProt P45974-2 1-835) (enzyme)”, the binding result in assay [2] is “no binding”. Consider “His tagged USP5 protein (from UniProt P45974 1-858) (enzyme)”, for which, in assay [3], the binding entry is “binds”.

The values above are taken from publication PMC11781186.
